Measurements published in PMC6095626, “Screening of the Pathogen Box for inhibitors with dual efficacy against Giardia lamblia and Cryptosporidium parvum” (PLoS Neglected Tropical Diseases, 2018).

Key:
[1] = test system: C. parvum (UGA1 Nluc expressing strain in HCT-8 cells); assay type: cell-based, Cryptosporidium parvum; settings: initial Pathogen Box screen, single concentration 10 µM, inhibition compared to DMSO wells
Procedure: Growth inhibition and EC50 determination assays were performed using UGA1 Nluc expressing C. parvum strain in HCT-8 cells (ATCC^©, Manassas, VA) as previously described. HCT-8 cells were inoculated onto 96-well plates and allowed to grow for 48 hours to 90–100% confluence and then treated with single concentration (10 μM) or serially diluted compounds prior to oocyst infection. C. parvum oocysts were incubated for 10 minutes in 10% bleach at room temperature and then washed with DPBS. […] The cell monolayers were lysed for 1 hour before adding Nano-Glo® luciferase reagent (Promega, Madison, WI), and measuring relative luminescence units (RLU) in an EnVision Plate Reader (Perkin Elmer, Waltham, MA). Several parameters, including reproducibility and reliability, were previously evaluated to optimize this assay for low and high-throughput (HTP) screening of small molecule compounds against C. parvum. EC50 values were calculated using Prism 7 software (GraphPad Software, San Diego, CA).
C. parvum screening against the Pathogen Box compounds was performed as previously described starting at a concentration of 10 μM [23].

[2] = test system: G. lamblia trophozoites (luciferase expressing, WBC6); assay type: cell-based, Giardia lamblia; settings: initial Pathogen Box screen, single concentration 16 µM, inhibition compared to DMSO wells
Procedure: Trophozoites were harvested by chilling cultures on ice for 30 minutes and plated by adding 150 μL per well at a concentration of 250,000 cells/mL. Metronidazole (Sigma, St. Louis, MO) was used as a control and was serially diluted 1:2 from 40 μM to 0.04 μM and 150 μL was added to the 150 μL of the G. lamblia trophozoites. Plates were covered in plastic low-evaporation lids, sealed in individual anaerobic BD GasPak Bio-Bags (Becton Dickinson, San Jose, CA) and incubated at 37 °C for 24 hours. […] A duplicate plate was concurrently set up and assayed using a MOXI Z Mini Automated Cell Counter Kit (Orflo, Ketchum, ID). Results obtained from the bioluminescence assay and the MOXI counter data were compared to evaluate their correlation to each another. Albendazole (Sigma, St. Louis, MO), an alternative giardiasis therapeutic, was assayed in concentrations from 4 μM to 0.004 μM with only the luciferase expressing G. lamblia cells. […]

SMILES: CN1CCCC1CCO[C@](C)(c1ccccc1)c1ccc(Cl)cc1 (some centres unmarked) [MMV637229]
- Crypto (10 uM) Mean % inhibition [1]: 85%
- Giardia (16 uM) Mean % inhibition [2]: 0.0356%
